Results deposited as PubChem BioAssay AID686943 (Drosophila RNAi Screening Center, 2013)
Test: 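Knockdowns that increase or decrease active ERK after insulin receptor stimulation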 (primary screen). Cells: Drosophila S2R+ haemocyte-like cells expressing YFP-tagged ERK (Rolled). Knock-down reagent: long dsRNA against Drosophila genes. Challenge: insulin stimulation versus unstimulated cells; dose and duration not given. Measurement: 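Per-plate z-scores of phospho-ERK immunostaining normalised to YFP-tagged ERK, measured with and without insulin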. Scale: replicate 1, z-score of dpERK with insulin and replicate 2, z-score of dpERK with insulin: higher = more active ERK per ERK-YFP after insulin.
In all, the deposit lists about 23,000 reagents; shown is an unselected part of those with a known target gene and a result. 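Extra replicates exist only for a retested subset of genes; insulin dose and duration not given; both raised and lowered dpERK matter.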 Reagents against one gene are numbered here. Names joined by + are all predicted targets of the reagent. Not all columns of the deposit are shown. Not stated in the record: the amount of reagent, the time to read-out.

f-cup (flyers-cup)
- replicate 1, z-score of dpERK with insulin: 0.26
- replicate 2, z-score of dpERK with insulin: 0.21

CG43124
- replicate 1, z-score of dpERK with insulin: -0.42
- replicate 2, z-score of dpERK with insulin: 0.25

CG14313
- replicate 1, z-score of dpERK with insulin: 0.13
- replicate 2, z-score of dpERK with insulin: -0.05

CR43096 + CG43060
- replicate 1, z-score of dpERK with insulin: 0.64
- replicate 2, z-score of dpERK with insulin: 1.01

CG14879
- replicate 1, z-score of dpERK with insulin: 1.1
- replicate 2, z-score of dpERK with insulin: -0.26

CG16998
- replicate 1, z-score of dpERK with insulin: 0.24
- replicate 2, z-score of dpERK with insulin: 0.48

CG15548
- replicate 1, z-score of dpERK with insulin: -0.08
- replicate 2, z-score of dpERK with insulin: -0.04

Ctps (CTP synthase) #1
- replicate 1, z-score of dpERK with insulin: -0.05
- replicate 2, z-score of dpERK with insulin: -1.57

Ctps (CTP synthase) #2
- replicate 1, z-score of dpERK with insulin: 1.64
- replicate 2, z-score of dpERK with insulin: 0.69

Ctps (CTP synthase) #3
- replicate 1, z-score of dpERK with insulin: -3.59
- replicate 2, z-score of dpERK with insulin: -0.76

CG17944
- replicate 1, z-score of dpERK with insulin: -1.73
- replicate 2, z-score of dpERK with insulin: -2.15

CG15611 #1
- replicate 1, z-score of dpERK with insulin: 0.39
- replicate 2, z-score of dpERK with insulin: 1.95

CG15611 #2
- replicate 1, z-score of dpERK with insulin: -0.17
- replicate 2, z-score of dpERK with insulin: -0.41
